Experimental data published in PubChem BioAssay AID651640 (Broad Institute, 2012).
The campaign covered roughly 350,000 compounds. About 6,000 (1.7%) were called active. The shares of active, inactive and inconclusive entries below differ from those in the screen. No stated cut-off is given here; in the data, active means CPE inhibition above about 20% (passing the limit was not always enough); inconclusive means no clear call, values can overlap the other calls; tested in BHK-21 cells.

Assay: protection of cells from dengue 2 killing – plate reader, single concentration, primary screen (AID 651640);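 further: 0% = median of neutral control wells and 100% = median of positive control wells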
Conditions: DENV2-infected cells, cytopathic effect rescue, at 9.99 µM, stronger effect = higher value

Row | SMILES | CPE inhibition
1 | CCN(CC)C(=O)c1cccc(-c2csc(C(NC(C)=O)c3ccc(F)c(F)c3)n2)c1 (centres undefined) | inconclusive: 30%
2 | O=C(NN=Cc1ccc2c(c1)OCO2)c1ccncc1 | inconclusive: 20.2%
3 | CN(C)C(=O)c1ccc(-c2ccc([C@@H]3[C@@H](CO)N4CCCCN(CCC(F)(F)F)C[C@H]34)cc2)cc1 | inconclusive: 22.5%
4 | CCc1ccc(NC(=O)C/C(C)=N/NC(=O)COc2ccc(C)cc2Br)cc1 | inconclusive: 35.1%
5 | COc1ccc(CCCNC(=O)C2CCC(=O)N(Cc3ccc(Cl)cc3)C2)cc1 (centres undefined) | inactive: -2.2%
6 | CC(=O)N1CCc2c(sc(NC(=O)CCS(=O)(=O)c3ccccc3)c2C(N)=O)C1 | inconclusive: 56.7%
7 | O=C1CCC[C@@H]2C[C@@]3(C[C@@H]4CCN1[C@H]24)Nc1cc([N+](=O)[O-])ccc1NC3=NC1CCCCC1 | inconclusive: 28.1%
8 | COc1ccc(CNC(=O)COC(=O)c2ccc(C)c(S(=O)(=O)N3CCOCC3)c2)cc1 | inconclusive: 31%
9 | CCOc1ccccc1/C=C/c1onc(C)c1S(=O)(=O)N1CCC(C(=O)NC)CC1 | inconclusive: 35.6%
10 | C[C@@H]1CN([C@@H](C)CO)C(=O)Cc2cc(NC(=O)C3CCCCC3)ccc2O[C@@H]1CN(C)S(=O)(=O)c1ccc(F)cc1 | inactive: 14.4%
11 | CCNC(=O)C[C@H]1CC[C@H]2[C@@H](COC[C@@H](O)CN2C(=O)Nc2ccc3c(c2)OCO3)O1 | inactive: 0.132%
12 | CCNC(=O)[C@@H]1[C@@H](CO)[C@@H]2Cn3c(ccc(-c4ccc(OC)cc4)c3=O)[C@@H]2N1Cc1nccs1 | inactive: 3.82%
13 | COc1cccc(-c2ccc3c(c2)[C@H]2[C@H](CCN2S(=O)(=O)c2ccccc2C)[C@@H](CO)N3)c1 | inactive: 8.29%
14 | O=S(=O)(NCC[C@@H]1CC[C@@H](NS(=O)(=O)c2ccccc2Cl)[C@H](CO)O1)c1ccc(Cl)cc1 | inconclusive: 29.3%
15 | N/C(=N\OC(=O)COc1ccc2ccccc2c1Br)c1cccnc1 | inconclusive: 23.3%
16 | CCCOc1ccc(C(=O)NC(=S)N2CCN(c3cc4c(cc3F)c(=O)c(C(=O)O)cn4CC)CC2)cc1 | active: 52.5%
17 | Cc1ccccc1S(=O)(=O)N1C[C@H](O)COC[C@@H]2O[C@@H](CC(=O)NCCc3ccccc3)CC[C@H]21 | inactive: -2.99%
18 | CC(C)C#Cc1ccc2c(c1)O[C@@H](CN(C)C(=O)C1CC1)[C@H](C)CN([C@@H](C)CO)S2(=O)=O | inconclusive: 32.2%
19 | COc1ccccc1C(=O)NC(CCSC)C(=O)OC(C)C(N)=O (centres undefined) | inconclusive: 56.8%
20 | CCOC(=O)C1=C[C@@H](C(C)(C)C)N(S(=O)(=O)c2ccc(C)cc2)[C@H]1c1cccc2ccccc12 | inactive: 2.28%
21 | OC[C@@H]1[C@H](c2ccccc2)C2(CN(Cc3nccs3)C2)N1CCC(F)(F)F | active: 25.5%
22 | CC(C)(C)c1nc(Sc2ccc([N+](=O)[O-])cn2)n[nH]1 | inactive: 7.5%

Of the compounds above, these have a tert-butyl group:
Row | SMILES | CPE inhibition
20 | CCOC(=O)C1=C[C@@H](C(C)(C)C)N(S(=O)(=O)c2ccc(C)cc2)[C@H]1c1cccc2ccccc12 | inactive: 2.28%
22 | CC(C)(C)c1nc(Sc2ccc([N+](=O)[O-])cn2)n[nH]1 | inactive: 7.5%

(list continues)

Row | SMILES | CPE inhibition
23 | C[C@@H](O)C#Cc1cnc2c(c1)C(=O)N([C@@H](C)CO)C[C@H](C)[C@@H](CN(C)C(=O)Cc1ccccn1)O2 | inactive: 11.1%
24 | O=S(=O)(Nc1cccc(-n2cnnn2)c1)c1ccccc1F | inconclusive: 40.5%
25 | CCCNC(=O)N1[C@H](C#N)[C@H](c2ccc(-c3ccc(C(=O)N(C)C)cc3)cc2)[C@H]1CO | inconclusive: 84.9%
26 | N#Cc1ccc(-c2nc3ccc(Cl)cn3c2Cc2ccccc2C(F)(F)F)cc1 | inconclusive: 28.2%
27 | Cc1noc(C)c1S(=O)(=O)Nc1ccc2c(c1)C(=O)N([C@@H](C)CO)C[C@@H](C)[C@H](CN(C)S(=O)(=O)c1ccccc1)OCCCC[C@H](C)O2 | inactive: 5.19%
28 | CC(C)N(C(=O)[C@H]1C[C@H](CC(=O)NCCCn2ccnc2)C(=O)N2CCc3c([nH]c4cc(-c5ccco5)ccc34)[C@]12C)C(C)C | inconclusive: 27.3%
29 | C#CCOCCOCCOCCNc1nc(N2CCN(C(=O)[C@H](CCCCN)n3cc(CN)nn3)CC2)nc(N2CCN(C(=O)[C@H](CCCCN)n3cc(CN)nn3)CC2)n1 | inactive: -13.9%
30 | NCC[C@H]1CC[C@@H](NC(=O)Cc2ccncc2)[C@@H](CO)O1 | inactive: 0.873%
31 | O=C(C[C@@H]1C[C@@H]2c3cc(NC(=O)Nc4ccccc4)ccc3O[C@@H]2[C@H](CO)O1)NCCN1CCCCC1 | inactive: -0.177%
32 | CN(CC(=O)Nc1sccc1C#N)S(=O)(=O)c1ccc(F)cc1 | inconclusive: 23.7%
33 | Cc1csc(=O)n1CCC(=O)NCc1ccc(F)cc1 | inconclusive: 25.9%
34 | C[C@@H]1CCCCO[C@H](CN(C)S(=O)(=O)c2cccs2)[C@@H](C)CN([C@H](C)CO)C(=O)c2cc(NC(=O)Cc3ccccc3)ccc2O1 | inconclusive: 48.8%
35 | O=C(Cc1ccccc1)NC1CCN(C(=O)c2ccc([N+](=O)[O-])cc2)CC1 | inactive: -4.18%
36 | COc1ccc(S(=O)(=O)Nc2ccc3c(c2)C(=O)N([C@@H](C)CO)C[C@H](C)[C@H](CN(C)C(=O)NC(C)C)O3)cc1 | inconclusive: 36.3%
37 | CCC(NC(=O)c1ccncc1)c1ccccc1 (centres undefined) | inconclusive: 32.6%
38 | COc1cccc(S(=O)(=O)Nc2ccc3c(c2)[C@@H]2C[C@@H](CC(=O)NCCc4ccccc4)O[C@H](CO)[C@@H]2O3)c1 | inactive: 0.163%
39 | CCCCN(C=O)c1c(CC)nc2c(OCC3CCCCC3)cccn12 | inconclusive: 39.6%
40 | CCCCCCCCN1C(=O)[C@H](CC(=O)NCc2cccc(C(F)(F)F)c2)C[C@@]2(C(=O)OC)CCCCC=C12 | inconclusive: 45.9%
41 | CCC1CC(=O)CCN1S(=O)(=O)c1ccc(C)cc1 (centres undefined) | inconclusive: 38.9%
42 | O=C(CC(O)c1ccncc1)c1ccccc1O (centres undefined) | inconclusive: 31%
43 | O=C(C[C@@H]1CC[C@@H]2[C@H](COC[C@H](O)CN2S(=O)(=O)c2ccc(Oc3ccccc3)cc2)O1)Nc1ccccc1 | inconclusive: 36.8%
44 | C[C@@H]1CN([C@@H](C)CO)C(=O)c2cc(C#CC3CCCCC3)cnc2O[C@@H]1CN(C)S(=O)(=O)c1cccc(F)c1 | inactive: -0.459%

Two of the compounds above, in markdown:

| Row | SMILES | CPE inhibition |
| --- | --- | --- |
| 32 | CN(CC(=O)Nc1sccc1C#N)S(=O)(=O)c1ccc(F)cc1 | inconclusive: 23.7% |
| 33 | Cc1csc(=O)n1CCC(=O)NCc1ccc(F)cc1 | inconclusive: 25.9% |
